At least one compound was matched to its structure with a doubt left.
Columns and labels:
Assay type in all cases: cell-based, rat
[1] = test system: p70S6K (Thr389 and Thr421); assay: Western blot of p70S6K phosphorylation in H4IIE cells; conditions: 15-minute pre-incubation with inhibitor
Method: Tissue culture media, antibiotics, fetal bovine serum (FBS) and Nunc tissue culture plates were purchased from Invitrogen Canada Inc. (Burlington, Ontario, Canada, L7P 1A1). Insulin (Sigma-Aldrich Canada Ltd., Oakville, Ontario, Canada, L6H 6J8) was dissolved in water and added directly to cells at a concentration of 250 nM unless otherwise indicated. The BWE was prepared and analyzed as described in Example 1. Two μL of the BWE were added directly to cells unless otherwise indicated. This amount was chosen on the basis of equivalence to insulin. […]
(§1) Cellular protein extracts were prepared by addition of 200 μL 2×SDS/gel loading buffer (0.125 M Tris pH 6.8, 2% SDS, 10% glycerol) to H4IIE cells in 12-well culture dishes. The samples were briefly sonicated, and protein content measured using the BCA protein assay kit. […] HRP was detected using the ECL chemiluminescent system after the membranes had been washed four times.
(§2) Quantification of data obtained on film (Kodak X-omat) was accomplished with a GS800 imaging densitometer (Bio-Rad Laboratories) under nonsaturating conditions with local background subtraction. […]

[2] = test system: H4IIE cells; assay: 3H-deoxyglucose uptake by H4IIE cells; conditions: Example 5; insulin 10^-6 M; BWE 2 μL; rutin 0.011 mM; 20-min exposure
Method: Tissue culture media, antibiotics, fetal bovine serum (FBS) and Nunc tissue culture plates were purchased from Gibco-BRL (division of Invitrogen Canada Inc.). Insulin (Sigma-Aldrich Canada Ltd.) was dissolved in water and added directly to cells at a final concentration of 10^−6 M. The buckwheat extract was prepared and analyzed as in Example 1. Two μL of the buckwheat extract were added directly to cells unless otherwise indicated. Myo-inositol (Sigma Aldrich Canada Ltd.) and D-chiro-inositol (Industrial Research Ltd.) were dissolved in water at an equal concentration to the amounts present in the BWE (Table 3) and 2 μL of each solution was added directly to cells.
Rat H4IIE hepatoma cells (American Type Culture Collection, CRL 1548) were cultured as described in Example 3. […]
^3H-deoxyglucose uptake was assayed using the method disclosed by Harrison et al. (1990, J. Biol. Chem. 265(10):5793-5801). […] After two rapid washes with ice-cold PSS (0.5-1 mL/well), the cells were solubilized with 0.4 mL of 0.1% SDS, and ^3H was detected in 3 mL of EcoLume scintillant (MP Biomedicals Inc., Costa Mesa, Calif., USA, 92626).
Statistical significance between treatments was determined by one-way ANOVA and by Duncan's multiple range test for means testing (SAS v.9.1, SAS Institute Inc., Cary, N.C.). […] Data are expressed as the mean±SE. […]

[3] = test system: p42/44 MAPK (Thr202/Tyr204); assay: Western blot of MAPK phosphorylation in H4IIE cells; conditions: 6-min incubation
Method: Tissue culture media, antibiotics, fetal bovine serum (FBS) and Nunc tissue culture plates were purchased from Invitrogen Canada Inc. (Burlington, Ontario, Canada, L7P 1A1). Insulin (Sigma-Aldrich Canada Ltd., Oakville, Ontario, Canada, L6H 6J8) was dissolved in water and added directly to cells at a concentration of 250 nM unless otherwise indicated. The BWE was prepared and analyzed as described in Example 1. Two μL of the BWE were added directly to cells unless otherwise indicated. […] Myo-inositol (Sigma-Aldrich Canada Ltd.) and D-chiro-inositol (Industrial Research Ltd., Wellington, New Zealand) were dissolved in water at an equal concentration to the amounts present in the BWE (Table 3) and 2 μL of each solution (0.1% v/v final concentration) was added directly to cells.
Rat H4IIE hepatoma cells (American Type Culture Collection, CRL 1548) were cultured following the method disclosed by Yau et al., (1998, Eur. J. Biochem. 253: 91-1). The H4IIE cells were maintained in α-modified Eagle's media containing 10% FBS, 2 mM glutamine, 25 μg·mL^−1 streptomycin and 25 units·mL^−1 penicillin. Cells were plated and grown to 70% confluence. All cells were placed into serum-free medium for 72 h before addition of stimulating agents to ensure entry into a quiescent state. […]
as §1, §2

Row | Structure (SMILES) | effect of the inhibitor on insulin-stimulated phosphorylation of p70S6K (Thr389) ([1]; then INS 6 minutes) | effect of the inhibitor on insulin- and BWE-stimulated phosphorylation of p70S6K (Thr421) ([1]; then INS or BWE 6 minutes) | glucose uptake, insulin combined with the agent (FIG. 27) [2] | MAPK enzyme activity (FIG. 26) ([3]; 0.011 mM rutin (1×)) | MAPK enzyme activity (FIG. 26) ([3]; 0.11 mM rutin (10×)) | MAPK enzyme activity (FIG. 26) ([3]; 5.6 mM rutin (50×))
1 | O=c1cc(N2CCOCC2)oc2c(-c3ccccc3)cccc12 [LY294002] | requires activation of PI3K | independent of P13K (LY294002 sensitive) |  |  |  | 
2 | C[C@@H]1O[C@@H](OC[C@H]2O[C@@H](Oc3c(-c4ccc(O)c(O)c4)oc4cc(O)cc(O)c4c3=O)[C@H](O)[C@@H](O)[C@@H]2O)[C@H](O)[C@H](O)[C@H]1O [rutin, Rutin trihydrate] |  |  | significantly stimulated glucose uptake | stimulated MAKP enzyme activity | stimulated MAKP enzyme activity | stimulated MAKP enzyme activity
